# Data as given in US20250144562A1, “ELECTROCHEMICAL CO2 CAPTURE WITH AIR STABLE REDOX SPECIES” (President and Fellows of Harvard College, priority 2022, published 2025).
# Experiment: 1,8-BTMAPAQ-based CO2 capture experiment (BaCO3 precipitation)
# Settings: for BaCO3 captured: 0.5 mmol quinone
structure (smiles),measurement,setting,value
"C[N+](C)(C)CCCOc1cccc2c1C(=O)c1c(OCCC[N+](C)(C)C)cccc1C2=O [1,8-BTMAPAQ]",BaCO3 captured,adduct kept in N2,200 mg
same,BaCO3 captured,solution with captured CO2 vigorously stirred in air,170 mg
same,CO2 per quinone escaped during the air exposure,air exposure,0.3
same,CO2 molecules captured per quinone,with air exposure,1.7
